Experimental data: patent publication US9758501B2, “Fluorophore 3-hydroxyflavone” (TUBITAK (TURKIYE BILIMSEL VE TEKNOLOJIK ARASTIRMA KURUMU), priority 2013, dated 2017)

Assay: Fluorescence emission of 3-HFNMe3 in water, excited at 381 nm
Format: physicochemical

For “N-(3-hydroxy-4′-flavonyl)-N,N,N-trimethylammonium sulphate [3-HFNMe3]”, the emission band maximum (normal (tap) water, only one emission band) was 456 nm, the “N* emission band” value (ultra pure water, two bands) was 450 nm and the “T* emission band” value (ultra pure water, two bands) was 520 nm.
